Measurements as given in PubChem BioAssay AID493014 (National Center for Advancing Translational Sciences (NCATS), 2011).
Hit rate of the full screen: of about 340,000 compounds, about 170 (0.05%) were called active. Inconclusive results, whose numbers are uncertain, are shown with a selection of clear calls. The call rests on the fitted dose curve; in most records, active means well fitted inhibition curve with a large enough effect in the signal ratio, with a control signal flat (not every such curve was filed as active); inconclusive means small, poorly fitted or top-dose-only effect, or effect the other way, or a change in a side signal; inactive means flat fitted curve, though single readings scatter; the % refers to the signal ratio. Where the call is inconclusive, the potency comes from a doubtful curve fit.

Experiment: qHTS Assay to Find Inhibitors of Chronic Active B-Cell Receptor Signaling;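 on activity change, negative = inhibition: plate controls were basal doxycycline-induced cells for no effect and cells given 10 µM MG132 for full effect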
Settings: ABC-DLBCL IkBa-CBG/CBR reporter, luminescence ratio (green luciferase fused to IkBa over red control in TMD8 lymphoma cells), 4 h; activity change, negative = inhibition: at 46.1 µM (top of the series)
In short: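 Cell line TMD8 (human ABC DLBCL), stably expressing tet-inducible CBG68-IkBa fusion and CBR; IMDM/0.5% FBS; cpd up to 46 uM; dox induction, 4 h, 37C/5% CO2; dual luminescence; green/red ratio; MG132 control.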
Potency means the concentration at half of the fitted maximal effect.

| SMILES | activity change, negative = inhibition | Potency |
| --- | --- | --- |
| COCc1cc(Sc2ccc(Cl)cc2)nc(C)n1 | inconclusive: -0.899% | – |
| O=C(O)CNC(=S)N(Cc1ccccc1)Cc1cccs1 | inactive | – |
| O=C(c1cccs1)N1CCC(Cc2ccccc2)CC1 | – | inconclusive: 2.31 µM [rising, full curve, poor fit] |
| COc1ccccc1N1CCN(C(=O)Cn2nnc(-c3ccncc3)n2)CC1 | inconclusive: 4.12% | – |
| c1ccc(N2CCN(c3ccccc3)C2c2cccs2)cc1 | – | inconclusive: 18.4 µM [falling, partial curve, poor fit] |
| CCOCCCn1c(=NC(=O)c2cccs2)c(C#N)cc2c(=O)n3ccccc3nc21 | inconclusive: 13.7% | – |
| COc1ccc(N(CC(=O)NC2CCCC2)C(=O)Cn2nnc(-c3ccc(OC)c(OC)c3)n2)c(OC)c1 | inconclusive: -1.16% | – |
| Cc1sc(-c2ccccn2)nc1OC(=O)c1ccc(F)cc1F | – | inconclusive: 15.8 µM [falling, single point] |
| COc1cc(OC)cc(-c2nc3cc(C)ccc3o2)c1 | inconclusive: -4.36% | – |
| C/C(=C\COc1cc(=O)[nH]c2ccccc12)CCC(O)C(C)(C)O (stereo not given) | – | inconclusive: 35.5 µM [falling, single point] |
| CC(C)C1N=C(c2ccc3c(c2)OCO3)CC(c2ccccc2O)N1 (stereo not given) | – | inconclusive: 32.6 µM [falling, single point] |
| CCOC(=O)C1=C(C)NC(C)=C(C(=O)OCC)C1/C=C/c1ccccc1 | – | inconclusive: 18.4 µM [falling, partial curve, poor fit] |
| COc1ccc(C(=O)Nc2ccccc2)cc1NC(=O)c1cccs1 | inconclusive: -17% | – |
| CC(C)CC(C(=O)Nc1oc(-c2ccco2)c(-c2ccco2)c1C#N)N1C(=O)c2ccccc2C1=O (stereo not given) | inconclusive: 9.83% | – |
| CC1(c2ccccc2)NC(=S)N2C1NC(=S)N2c1ccccc1 (stereo not given) | inconclusive: 8.77% | – |
| O=S(=O)(NCCN1CCOCC1)c1ccc(-c2ccc(S(=O)(=O)NCCN3CCOCC3)cc2)cc1 | inconclusive: 3.18% | – |
| COC(=O)c1cc(NC(=O)/C=C/c2ccc3c(c2)OCO3)cc(C(=O)OC)c1 | inconclusive: -1.32% | – |
| COc1ccccc1-c1nc(-c2ccc(C)nc2OC)no1 | inconclusive: -6.24% | – |
| CC(C)C(=O)NC(=S)Nc1nnn(C)n1 | inactive | – |
| CCN(Cc1ccc(OC)c(COC)c1)CC1CCCN(CCc2cccc(OC)c2)C1 (stereo not given) | inconclusive: -0.618% | – |
| COCCNC(=S)N/N=C(\C)c1ccc(Cl)c(Cl)c1 | – | inconclusive: 28.2 µM [cytotoxic, partial curve] |
| CC1CCN(C(=O)c2ccc3c(Cl)c4c(nc3c2)CCCC4)CC1 | inconclusive: 13.2% | – |
| Cc1ccc(NC(=O)c2cc(NC(=O)c3ccccc3C(=O)O)ccc2N2CCCCC2)cc1 | inconclusive: -1.06% | – |
| COc1cccc(C2=NOC(C(=O)NCc3cccs3)C2)c1 (stereo not given) | – | inconclusive: 10 µM [falling, partial curve] |
| CCOc1ccccc1N/C=C(\C#N)c1nc2ccccc2n1C | inconclusive: 5.26% | – |
| CC(=O)c1ccc(S(=O)(=O)Oc2ccc(-c3ccc(C(=O)O)cc3)cc2)cc1 | – | inconclusive: 3.16 µM [rising, partial curve] |
| CCCCn1c(NC(=O)C2CCCCC2)nc2ccccc21 | inconclusive: 4.5% | – |

| SMILES | activity change, negative = inhibition | Potency |
| --- | --- | --- |
| COc1ccccc1NC(=O)c1ccc(S(=O)(=O)N(C)c2ccccc2)cc1 | inactive | – |
| COC(=O)C1(C(=O)OC)Sc2ccccc2C1=O | inconclusive: -4.26% | – |
| C/C(=N\NC(=O)c1ccc(N(C)C)cc1)c1ccc(C)c(C)c1 | – | inconclusive: 16.4 µM [falling, partial curve, poor fit] |
| COc1ccccc1OCCNC(=O)c1cc(C2CC2)nc2c1cnn2C(C)C | inconclusive: 5.26% | – |
| COc1ccccc1N(C)S(=O)(=O)c1ccc(C(=O)OCC(=O)NCC(F)(F)F)cc1 | – | inconclusive: 7.94 µM [falling, partial curve, poor fit] |
| CCN(CC)C(=O)CSc1nc2ccccc2c(=O)n1-c1cccc(OC)c1 | inconclusive: -2.07% | – |
| Cc1cc(=O)oc2cc(OCC(=O)Nc3cccc(S(=O)(=O)N(C)C)c3)ccc12 | inconclusive: 7.23% | – |
| Cc1cccc(N2CCN(C(=O)[C@H](C)N3C(=O)C4CC=CCC4C3=O)CC2)c1C (stereo not given in full) | inconclusive: -0.497% | – |
| O=C1/C(=C/c2ccc(F)c(F)c2)CSc2sccc21 | – | inconclusive: 8.2 µM [activator, partial curve, poor fit] |
| COc1ccc(-c2cc(=O)c3cc(O)ccc3o2)cc1 | – | inconclusive: 15.8 µM [falling, partial curve] |
| CCOC(=O)c1oc2cccc(O)c2c1C | inconclusive: -9.65% | – |
| CC(=O)N1CCN(Cc2nc3cc([N+](=O)[O-])ccc3n2C)CC1 | inconclusive: -3.38% | – |
| Cc1ccc(-c2nnc(N3CCN(C(=O)c4cccs4)CC3)c3ccccc23)cc1 | inactive | – |
| NS(=O)(=O)c1cccnc1Nc1ccc(Cl)c(Cl)c1 | inconclusive: -0.513% | – |
| CCc1nnc(NC(=O)CCN2C(=O)CCC2=O)s1 | inconclusive: -0.393% | – |
| CCOc1ccccc1C(=O)N/N=C/c1cccc2cccnc12 | – | inconclusive: 7.94 µM [falling, partial curve] |
| O=C(NCC(O)c1ccccc1)Nc1cccs1 (stereo not given) | – | inconclusive: 28.2 µM [falling, single point] |
| COc1ccccc1NS(=O)(=O)c1ccc(C(=O)NCc2ccc(S(N)(=O)=O)cc2)cc1 | inactive | – |
| OCCC1CN(Cc2cc3c(cc2Cl)OCO3)CCN1C1CCCCC1 (stereo not given) | inconclusive: -17.8% | – |
| CCn1ccnc1CN(C)Cc1c(C(=O)N2C[C@@H](C)O[C@@H](C)C2)nc2ccc(Cl)cn12 | inactive | – |
| COc1ccc(NC(=O)CN2CCN(c3ccc(F)cc3)CC2)cc1 | inconclusive: -7.51% | – |
| O=C(CN1C(=O)c2cccnc2Oc2ccc(Cl)cc21)NC1CCCCC1 | inconclusive: -9.89% | – |
| O=C(NC1CCCC1)C(c1ccccn1)N(C(=O)c1csnn1)c1ccccc1Cl (stereo not given) | inactive | – |
| COc1ccc(CNc2ncc(-c3ccc(F)cc3)n2C)cc1OC | – | inconclusive: 35.5 µM [falling, partial curve, poor fit] |
| CCCCNc1nc2c(-c3ccccc3)nnn2c2ccccc12 | – | inconclusive: 12.6 µM [falling, partial curve] |
| O=C(c1ccccc1)c1ccc(CN2C(=O)c3ccccc3C2=O)o1 | inconclusive: 7.12% | – |
| Cc1nc(Cl)sc1C(=O)Nc1ccc(Cl)cc1 | inactive | – |

| SMILES | activity change, negative = inhibition | Potency |
| --- | --- | --- |
| O=C(NCC1CCCO1)c1ccccc1OCc1ccc(F)cc1 (stereo not given) | inactive | – |
| CC(=O)Nc1ccc(OC(F)(F)Cl)cc1 | inconclusive: -2.03% | – |
| Cc1ccc(Nc2nc3nonc3[nH]c2=O)cc1Cl | inconclusive: -21.7% | – |
| Cc1ccc2c(c1)c1c3n2CCN(CC#N)C3CCC1 (stereo not given) | inconclusive: 3.76% | – |
| O=[N+]([O-])c1cc(CN2CCN(c3ccccc3)CC2)c(O)c2ncccc12 | – | inconclusive: 3.16 µM [falling, single point] |
| CCOC(=O)N1CCN(C(=O)CSCc2nc(-c3ccccc3C)oc2C)CC1 | – | inconclusive: 17.8 µM [falling, partial curve, poor fit] |
| Cc1cc(N2CCN(S(=O)(=O)c3ccc(Cl)c(Cl)c3)CC2)c2ccccc2n1 | – | inconclusive: 15.8 µM [falling, single point] |
| N#Cc1c(N)c(C(=O)c2ccccc2)n2c1CCC2 | inconclusive: 3.88% | – |
| Cc1ccc(-n2ncc3c(NCC(C)C)ncnc32)c(C)c1 | inconclusive: -11.7% | – |
| COc1c(Br)cc(Br)cc1/C=N/NC(=O)c1cccnc1 | inconclusive: -14.6% | – |
| O=C(Nc1nc(-c2ccccc2)cs1)Nc1ccc(F)cc1F | inactive | – |
| CC(C)C(=O)NC(c1ccc(N(C)C)cc1)c1c(O)ccc2ccccc12 (stereo not given) | inactive | – |
| CNC(=O)c1c(NC(NC(=O)c2ccco2)C(=O)c2ccc(Cl)cc2)sc2c1CCCC2 (stereo not given) | inconclusive: -6.47% | – |
| Cc1nn(C)cc1CN(C)Cc1c(C(=O)N(C)Cc2ccccc2)nc2ccccn12 | – | inconclusive: 2.82 µM [falling, partial curve, poor fit] |
| CCN(CCn1cccn1)Cc1nc(-c2ccc(OC)cc2)no1 | inactive | – |
| O=C(Nc1cc(S(=O)(=O)N2CCOCC2)ccc1Cl)c1ccc(=O)[nH]c1 | inactive | – |
| CC1(C)[N+]([O-])=C2C(=[N+]([O-])C1(C)C)c1ccccc1/C2=N\O | inactive | – |
| COc1ccc(OCC(=O)Nc2nonc2NC(=O)COc2ccc(OC)cc2)cc1 | – | inconclusive: 31.6 µM [falling, partial curve, poor fit] |
| O=C(NCC(=O)N1CCc2ccccc2C1)c1ccccc1Cl | – | inconclusive: 25.1 µM [falling, single point] |
| CC1(C)CC(=O)C2=C(C1)OC(N)=C(C#N)C21C(=O)N(CN2CCOCC2)c2ccccc21 (stereo not given) | inactive | – |
| Cc1c(C(=O)NC(=S)NCc2cccnc2)oc2ccccc12 | inconclusive: 3.18% | – |
| COc1ccc(C(=O)Nc2ncc(C)s2)cc1S(=O)(=O)N1CCCC1 | inconclusive: 12.4% | – |
| O=C(NCc1ccccc1F)C1CCCN1C(=O)Nc1ccc(Cl)cc1 (stereo not given) | inconclusive: -3.85% | – |
| Brc1ccccc1C1=Nn2c(nnc2-c2ccccc2)SC1 | – | inconclusive: 25.1 µM [falling, single point] |
| C=COC(=O)c1sc2nc(C)cc(C)c2c1N | inconclusive: 10.2% | – |
| COc1ccc(NC(=O)CN2CCN(CC(=O)Nc3ccc(F)cc3)CC2)cc1Cl | inactive | – |

An excerpt from above in order of formula weight, smallest number first.

| SMILES | activity change, negative = inhibition | Potency |
| --- | --- | --- |
| N#Cc1c(N)c(C(=O)c2ccccc2)n2c1CCC2 | inconclusive: 3.88% | – |
| CCN(CCn1cccn1)Cc1nc(-c2ccc(OC)cc2)no1 | inactive | – |
| Cc1nn(C)cc1CN(C)Cc1c(C(=O)N(C)Cc2ccccc2)nc2ccccn12 | – | inconclusive: 2.82 µM [falling, partial curve, poor fit] |
